Results deposited as PubChem BioAssay AID1224830 (NIAID, 2016).
Screen: 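Genes whose knock-down alters the TNF-alpha reporter response to LPS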 (primary screen). Cells: human THP-1 monocytic leukaemia cells, TNF dual-luciferase reporter clone, PMA-differentiated to macrophage-like cells. Reagents: siRNA pool against human genes, 50 nM. Time to read-out: LPS for 4 h, given about 3 days after siRNA transfection. Conditions: bacterial LPS (TLR4 ligand), 10 ng/ml. Measurement: 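Ratio of firefly to renilla light, scaled to the plate median and expressed as a robust z-score per replicate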. Scale: TNF reporter robust z-score: higher = stronger TNF reporter response to LPS. Active means: 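Each well counts as active if its z-score is over 2.8 or under -1.5; controls are left without a call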.
In all, the deposit lists about 18,000 reagents; below is a part drawn at random. About 2,900 of them (16%) count as active. 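Calls are made per well; low scores hint the gene aids the LPS response, high scores that it dampens it.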 Repeated entries: four replicate wells of each siRNA pool.

What did the screen give for GPR65 (GeneID 8477)?
TNF reporter robust z-score: 0.2; activity call: inactive

How did the screen score GPR65 (GeneID 8477)?
TNF reporter robust z-score: 1.44; activity call: inactive

What is on record for GPR65 (GeneID 8477)?
TNF reporter robust z-score: -0.1; activity call: inactive

With GPR65 (GeneID 8477), what does the deposit list?
TNF reporter robust z-score: 0.5; activity call: inactive

How did the screen score KRT16 (GeneID 3868)?
TNF reporter robust z-score: 2.14; activity call: inactive

With KRT16 (GeneID 3868), what does the deposit list?
TNF reporter robust z-score: 1.88; activity call: inactive

Which result is listed for KRT16 (GeneID 3868)?
TNF reporter robust z-score: 2.43; activity call: inactive

With KRT16 (GeneID 3868), what does the deposit list?
TNF reporter robust z-score: 0.69; activity call: inactive

For INTS9 (GeneID 55756), how do the results read?
TNF reporter robust z-score: -0.07; activity call: inactive

For INTS9 (GeneID 55756), what was measured?
TNF reporter robust z-score: 0.98; activity call: inactive

With INTS9 (GeneID 55756), what does the deposit list?
TNF reporter robust z-score: -0.5; activity call: inactive

What did the screen give for INTS9 (GeneID 55756)?
TNF reporter robust z-score: 0.37; activity call: inactive

The list goes on.
What did the screen give for DNAH11 (GeneID 8701)?
TNF reporter robust z-score: -0.28; activity call: inactive

With DNAH11 (GeneID 8701), what was measured?
TNF reporter robust z-score: 0.63; activity call: inactive

Which result is listed for DNAH11 (GeneID 8701)?
TNF reporter robust z-score: -0.6; activity call: inactive

With DNAH11 (GeneID 8701), what does the deposit list?
TNF reporter robust z-score: -0.56; activity call: inactive

For EHD4 (GeneID 30844), what does the deposit list?
TNF reporter robust z-score: 1.2; activity call: inactive

For EHD4 (GeneID 30844), what was measured?
TNF reporter robust z-score: -0.37; activity call: inactive

What did the screen give for EHD4 (GeneID 30844)?
TNF reporter robust z-score: 0.84; activity call: inactive

With EHD4 (GeneID 30844), what was measured?
TNF reporter robust z-score: 1.94; activity call: inactive
